Data on six molecules can be found in patent publication WO2009095489A2.

By UniProt entry, the sequences of proteins in these tests, tags left out. Residues count along the entry.
UniProt P08887, residues 20-358: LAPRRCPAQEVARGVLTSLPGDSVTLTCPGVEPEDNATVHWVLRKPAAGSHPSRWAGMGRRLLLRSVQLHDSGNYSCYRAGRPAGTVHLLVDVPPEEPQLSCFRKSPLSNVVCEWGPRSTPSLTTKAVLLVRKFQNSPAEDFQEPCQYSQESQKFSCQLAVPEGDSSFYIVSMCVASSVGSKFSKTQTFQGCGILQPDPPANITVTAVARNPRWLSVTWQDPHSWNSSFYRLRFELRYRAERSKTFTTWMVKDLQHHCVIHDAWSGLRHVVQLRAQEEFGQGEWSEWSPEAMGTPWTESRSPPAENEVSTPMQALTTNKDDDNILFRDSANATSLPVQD

Changes are numbered by the printed parent chain. No constants are given. Whether binding was seen depends on the method and setting. Some binding calls cover weakened binding; strength is not graded here.

This experiment concerns the target hIL-6R (on the Biacore chip) (human) (UniProt P08887). The experiment in a line: SPR (Biacore 3000), Nanobody injected over a high density hIL-6R chip. For orientation: In SPR one partner is held on a chip, and binding of the other changes the refractive index at the surface.

B1: IL6R201 (108-109EG) (VHH)
VHH: EVQLVESGGGLVQPGGSLRLSCAASGFTFSDYDIGWFRQAPGKGREGVSGISSSDGNTYYADSVKGRFTISRDNAKNTLYLQMNSLRPEDTAVYYCAAEPPDSSWYLEGSPEFFKYWGQGTLVTVSS
As for B1, the binding result is recorded as “binds”.

B2: IL6R201 (102-103ES) (VHH)
VHH: B1 VHH with D102E, E108D
Consider B2, for which the binding entry is listed as “binds”.

B3: IL6R201 (55-56QG) (VHH)
VHH: B1 VHH with D55Q, E108D
Regarding B3, the binding result is “binds”.

B4: IL6R201 (108-109QG) (VHH)
VHH: B1 VHH with E108Q
B4: the binding result is on record as “binds”.

B5: IL6R201 (55-56EG) (VHH)
VHH: B1 VHH with D55E, E108D
As for B5, the binding result is given as “binds”.

B6: IL6R201 (102-103QS) (VHH)
VHH: B1 VHH with D102Q, E108D
For B6, the binding entry is “binds”.
